From PubChem BioAssay AID540276 (National Center for Advancing Translational Sciences (NCATS), 2011)
The campaign covered roughly 300,000 compounds. About 5,400 (1.8%) were called active. Inconclusive results, whose numbers are uncertain, are shown with a selection of clear calls. The call rests on the fitted dose curve; tested in HEK293 cells. Where the call is inconclusive, the potency comes from a doubtful curve fit.

Assay: qHTS for inhibitors of binding or entry into cells for Marburg Virus
Details: Marburg virus pseudotyped entry inhibition, cell reporter; activity change, negative = inhibition: at 37.8 µM (top of the series) unless noted
On the % scale 0 is the no-effect control and ±100 the full control effect; potency means the concentration at half of the fitted maximal effect.

Question: Which Potency does the source give for CC1(C)CC(=O)C2=C(C1)NC(Nc1nc3ccccc3o1)=NC21CCCCC1 here?
Answer: inconclusive: 32.6 µM [inhibitor, single point]

Question: With O=C1C(=O)c2ccccc2C(O)=C1c1cccc([N+](=O)[O-])c1 as the compound, how does the Potency read?
Answer: active: 5.62 µM

Question: For COc1ccccc1C(=O)N/N=C(\C)CC(=O)Nc1ccccn1, which Potency is on record?
Answer: inconclusive: 17.8 µM [activator, partial curve, poor fit]

Question: Which Potency does the source give for CCOc1ccccc1C(=O)NC(C(=O)NCc1ccccc1OC)C(C)C (centres undefined) here?
Answer: inconclusive: 0.116 µM [inhibitor, full curve, poor fit]

Question: Which Potency does the source give for O=C(Nc1ccc(OC(F)(F)F)cc1)c1noc2c1CCCC2 here?
Answer: inconclusive: 1.26 µM [activator, full curve, poor fit]

Question: For Cc1ccc(NC(=O)CCN2CCN(C/C=C/c3ccccc3)CC2)cc1C, which Potency is on record?
Answer: inconclusive: 28.2 µM [inhibitor, single point]

Question: With CCOC(=O)c1cc(C(=O)OCC)c(=O)[nH]c1C as the compound, how does the Potency read?
Answer: inconclusive: 2.51 µM [activator, partial curve, poor fit]

Question: Which Potency does the source give for N#C/C(=N\Nc1ccccc1)C(=N)N1CCOCC1 here?
Answer: inconclusive: 20.6 µM [activator, single point]

Question: For C/C(CC(=O)N(C(C)C)C(C)C)=N\NC(=O)c1ccccc1Br, which Potency is on record?
Answer: inconclusive: 3.26 µM [activator, single point]

Question: For CC(C)c1ccc(/C=C/C(=O)n2nnc3ccccc32)cc1, which Potency is on record?
Answer: inconclusive: 25.9 µM [inhibitor, single point]

Question: With Cc1ccc(C(=O)NC(C)C2CC3CCC2C3)cc1 (centres undefined) as the compound, how does the “activity change, negative = inhibition” value read?
Answer: inactive: 5.84% [at 46.1 µM]

Question: With CCn1c(COc2ccccc2)nnc1SCC(=O)CC(=O)Nc1ccccc1OC as the compound, how does the “activity change, negative = inhibition” value read?
Answer: inactive: 13.6%

Question: Which Potency does the source give for CCN(CC)S(=O)(=O)c1ccc(NC(=O)c2cccnc2Cl)c(NC(=O)c2cccnc2Cl)c1 here?
Answer: inconclusive: 2.24 µM [inhibitor, full curve, poor fit]

Question: For CN1C(=O)/C(=C\C=C2/CCCN2C)N(C)C1=S, which Potency is on record?
Answer: inconclusive: 1.78 µM [activator, partial curve, poor fit]

Question: For O=c1c(/C=N/Nc2ccccc2)c(Sc2nnnn2-c2ccccc2)nc2ccccn12, which “activity change, negative = inhibition” value is on record?
Answer: inactive: -9.75%

Question: For CCOC(=O)c1c(NC(=O)C2c3ccccc3Oc3ccccc32)sc(C(=O)N(CC)CC)c1C, which Potency is on record?
Answer: active: 12.6 µM

Question: With O=C(OCCCCN1C(=O)c2ccccc2C1=O)c1ccc(Br)o1 as the compound, how does the Potency read?
Answer: inconclusive: 29.1 µM [activator, single point]

Question: For C=CCNC(=S)N/N=C/c1ccc(-c2ccc(OC)cc2)o1, which Potency is on record?
Answer: inconclusive: 5.62 µM [inhibitor, single point]

Question: Which “activity change, negative = inhibition” value does the source give for Cc1cccc(N=NC(=S)NNc2cccc(C)c2)c1 here?
Answer: inactive: 19.4%

Question: Which Potency does the source give for CCOC(=O)N1CCN(C(=O)/C(=C/c2cccs2)NC(=O)c2ccc(OC)c(OC)c2)CC1 here?
Answer: inconclusive: 5.62 µM [activator, single point]

Question: With CC(C)Cc1ccc(S(=O)(=O)NCC2CCCO2)cc1 (centres undefined) as the compound, how does the Potency read?
Answer: inconclusive: 12.6 µM [inhibitor, single point]

Question: With O=C(NCCCN1CCOCC1)c1cnn2c(-c3ccccc3)cc(-c3ccccc3)nc12 as the compound, how does the Potency read?
Answer: inconclusive: 35.5 µM [inhibitor, partial curve, poor fit]

Question: For CN(C1CCCCC1)S(=O)(=O)c1ccc(C(=O)O)cc1, which “activity change, negative = inhibition” value is on record?
Answer: inactive: -0.408%

Question: For C=C1C(=O)OC2CC(C)C3C=CC(=O)C3(C)C(O)C12 (centres undefined), which Potency is on record?
Answer: active: 0.631 µM

Question: With Cc1nn(-c2ccccc2)c(N2CCCC2)c1/C=N/Nc1ccc(S(=O)(=O)Nc2ccccc2)cc1[N+](=O)[O-] as the compound, how does the Potency read?
Answer: inconclusive: 35.5 µM [inhibitor, partial curve, poor fit]

Question: With CCOC(=O)c1c(NC(=O)CSc2nc3cccnc3n2C)sc(C(C)=O)c1C as the compound, how does the Potency read?
Answer: active: 10 µM

Question: For CCc1ccccc1-n1c(N)c(C(=O)OC)c2nc3ccccc3nc21, which Potency is on record?
Answer: inconclusive: 3.98 µM [inhibitor, partial curve]

Question: Which Potency does the source give for COC(=O)c1ccc(Cn2nnc3c(=O)[nH]c(C4CCCN(S(=O)(=O)c5ccccc5Cl)C4)nc32)cc1 (centres undefined) here?
Answer: inconclusive: 3.16 µM [inhibitor, single point]

Question: For Cc1cc(C)nc(SCc2nnc(SCC(=O)Nc3nc(-c4ccccc4)cs3)n2-c2ccccc2)n1, which Potency is on record?
Answer: inconclusive: 1.41 µM [inhibitor, full curve]

Question: For CSc1ccc(C(=O)NC2CCSc3ccccc32)cc1 (centres undefined), which “activity change, negative = inhibition” value is on record?
Answer: inactive: -27.1% [at 46.1 µM]

Question: Which Potency does the source give for CC(=O)c1ccc(NC(=O)c2cc(C)no2)cc1 here?
Answer: inconclusive: 6.31 µM [inhibitor, single point]

Question: Which “activity change, negative = inhibition” value does the source give for CCOC(=O)c1cnc2c(Cl)cc(Cl)cc2c1Nc1ccccc1OC here?
Answer: inactive: -28.1% [at 46.1 µM]

Question: For Cc1nnc(NC(=O)CSCc2c(C)noc2C)s1, which “activity change, negative = inhibition” value is on record?
Answer: inactive: 17.1%

Question: Which Potency does the source give for COc1ccccc1N(CC(=O)NCCSCc1ccco1)S(=O)(=O)c1ccccc1 here?
Answer: inconclusive: 32.6 µM [inhibitor, single point]

Question: Which Potency does the source give for CCc1ccc(-c2csc(NC(=O)C3=NN(c4ccccc4)C(=O)CC3)n2)cc1 here?
Answer: inconclusive: 9.2 µM [inhibitor, partial curve]

Question: With CCCOC(=O)c1c(NC(=O)c2cc3ccccc3c(=O)o2)sc2c1CCC(C)C2 (centres undefined) as the compound, how does the Potency read?
Answer: inconclusive: 2.24 µM [activator, partial curve, poor fit]

Question: Which “activity change, negative = inhibition” value does the source give for COc1ccc(CC(=O)NNc2ncnc3c2cnn3-c2ccccc2)cc1 here?
Answer: inactive: 23.9%

Question: For COc1cc(/C=C2/C(=N)N3OC(C)=CC3=NC2=O)ccc1OCCOc1ccc(C)cc1, which Potency is on record?
Answer: inconclusive: 31.6 µM [activator, single point]

Question: With O=S(=O)(c1cc(F)ccc1F)N1CCN(c2ncccn2)CC1 as the compound, how does the “activity change, negative = inhibition” value read?
Answer: inactive: -4.26% [at 46.1 µM]

Question: Which Potency does the source give for CC(C)(C)c1ccc(OCC(=O)NCCN2CCCC2)cc1 here?
Answer: inconclusive: 11.2 µM [inhibitor, partial curve, poor fit]

Question: With COc1cc(CCNC2=CC(=O)c3ncccc3C2=O)ccc1O as the compound, how does the Potency read?
Answer: inconclusive: 15.8 µM [inhibitor, single point]

Question: Which Potency does the source give for CCN(CC)S(=O)(=O)c1ccc(N2CCN(C)CC2)c(NC(=O)Nc2ccccc2F)c1 here?
Answer: inconclusive: 1.78 µM [inhibitor, full curve, poor fit]

Question: Which Potency does the source give for C[C@H]1Cc2c(-c3ccccc3)nc3c(c2CO1)CN(C(=O)NCc1ccco1)CC3 here?
Answer: inactive

Question: With Cc1ccc(-c2cnn(-c3cccc([N+](=O)[O-])c3)c2N)cc1 as the compound, how does the Potency read?
Answer: inconclusive: 0.1 µM [activator, full curve, poor fit]

Question: With COC(=O)CCn1nnc(-c2ccc(C(C)C)cc2)n1 as the compound, how does the Potency read?
Answer: inconclusive: 1.64 µM [inhibitor, full curve]

Question: With COc1n[nH]c(C(=O)Nc2cc(Cl)ccc2Cl)c1[N+](=O)[O-] as the compound, how does the Potency read?
Answer: inconclusive: 22.4 µM [inhibitor, single point]

Question: Which Potency does the source give for CN(C)CCNc1nc(-c2ccccc2)c2c(c1C#N)CC(C)(C)OC2 here?
Answer: inconclusive: 7.08 µM [inhibitor, full curve, poor fit]

Question: With COc1ccc(N2CCC(CNC(=S)Nc3c(C)cccc3C)C2)cc1 (centres undefined) as the compound, how does the Potency read?
Answer: inconclusive: 20 µM [inhibitor, partial curve, poor fit]

Question: For c1ccc(-c2nc(-c3ccco3)cs2)nc1, which Potency is on record?
Answer: inconclusive: 20.6 µM [activator, partial curve, poor fit]

Question: For Cc1ccc(-c2csc(NC(=O)c3ccno3)n2)cc1, which “activity change, negative = inhibition” value is on record?
Answer: inactive: 13.1%

Question: With CC(C)(C)c1ccc(C2CC2C(=O)N/N=C\c2cc3ccccc3nc2Cl)cc1 (centres undefined) as the compound, how does the “activity change, negative = inhibition” value read?
Answer: inactive: -4.77%

Question: Which Potency does the source give for CCOC(=O)N1CCc2c(sc(N)c2C#N)C1 here?
Answer: inconclusive: 2.51 µM [inhibitor, partial curve, poor fit]

Question: Which Potency does the source give for N#Cc1c(/N=C/c2cccs2)sc2c1CCCCC2 here?
Answer: inconclusive: 10.3 µM [inhibitor, single point]

Question: Which Potency does the source give for N#CCC(=O)Nc1ccc(C(=O)OCc2ccccc2Oc2ccccc2)cc1 here?
Answer: inconclusive: 35.5 µM [inhibitor, single point]

Question: With COc1ccc(-c2csc(NC(=O)C3=NN(c4ccccc4)C(=O)CC3)n2)cc1 as the compound, how does the Potency read?
Answer: inconclusive: 3.16 µM [inhibitor, partial curve, poor fit]

Question: For COc1cccc(C(c2c(NC(=O)c3ccccc3)sc(C)c2C)N2CCN(C)CC2)c1 (centres undefined), which Potency is on record?
Answer: active: 20 µM

Question: With CCCC(=O)NC(c1ccc(OC)c(OC)c1)c1c(O)ccc2ccccc12 (centres undefined) as the compound, how does the “activity change, negative = inhibition” value read?
Answer: inactive: 0.191%

Question: For Cc1ccc(S(=O)(=O)NC(C)C(=O)N2CCOCCOCCOCC2)cc1 (centres undefined), which activity change, negative = inhibition is on record?
Answer: inconclusive: 4.55% [activator] [at 46.1 µM]

Question: For Cc1ccc(S(=O)(=O)N(C)CC(=O)Nc2ccc3c(c2)OCO3)cc1, which Potency is on record?
Answer: inconclusive: 31.6 µM [activator, partial curve, poor fit]

Question: Which “activity change, negative = inhibition” value does the source give for COc1ccccc1NC(=O)c1ccc(NC(=O)CN2CCCC2)cc1 here?
Answer: inactive: -6.91% [at 46.1 µM]

Question: Which Potency does the source give for C/C(CCc1ccccc1)=N\NC(=S)NCCc1ccccc1 here?
Answer: inconclusive: 2.82 µM [activator, single point]

Question: For O=C(NC1=NCCS1)c1ccc(Cl)c(Cl)c1, which Potency is on record?
Answer: inconclusive: 8.91 µM [inhibitor, partial curve]

Question: With COc1ccccc1Nc1nc2ccccc2[nH]1 as the compound, how does the “activity change, negative = inhibition” value read?
Answer: inactive: -21.6% [at 46.1 µM]

Question: With O=C(CN1CCN(c2ncccn2)CC1)N1CCc2ccccc21 as the compound, how does the “activity change, negative = inhibition” value read?
Answer: inactive: 5.59%

Question: Which Potency does the source give for CC1CC(C)CN(C(=O)c2ccccc2Nc2ccc(SC(F)F)cc2)C1 (centres undefined) here?
Answer: inconclusive: 29.1 µM [inhibitor, single point]

Question: With Cn1cc([C@@H]2C[C@H]3CN(Cc4cccc(Cl)c4)C(=O)[C@]34CCCN24)c(-c2ccccc2)n1 as the compound, how does the Potency read?
Answer: inconclusive: 7.08 µM [inhibitor, partial curve, poor fit]

Question: With O=C(Nc1nccs1)C1CC(=O)N(c2ccc(Cl)cc2)C1 (centres undefined) as the compound, how does the “activity change, negative = inhibition” value read?
Answer: inactive: -13.9% [at 46.1 µM]

Question: For O=C(Nc1ccc(Cl)cc1)c1cc2c(cc1O)[nH]c1ccccc12, which Potency is on record?
Answer: active: 7.94 µM

Question: With COc1cc(C2NC(=S)NC(C)=C2C(=O)OC(C)C)ccc1OC(C)C (centres undefined) as the compound, how does the “activity change, negative = inhibition” value read?
Answer: inactive: 10.5%
